These are yes or no findings as the source states them, for the method shown. In cells and extracts the contact can be indirect. Some entries that bind do so weakly or less than the wild type.
Experiments:
β-catenin (human) [1] = biological target: β-catenin (human) (UniProt P35222); assay: co-immunoprecipitation from HCT116 cell lysates: IP β-catenin, Western blot E-cadherin
β-catenin (human) [2] = biological target: β-catenin (human) (UniProt P35222); assay: co-immunoprecipitation from HCT116 lysates (figure legend)
β-catenin (human) [3] = biological target: β-catenin (human) (UniProt P35222); assay: co-immunoprecipitation from HCT116 lysates (β-catenin IP, E-cadherin blot, and the reverse); binding lowered after FGF19 treatment

By UniProt entry, the sequences of proteins in these tests, tags left out. Residues count along the entry.
UniProt P35222, residues 2-781: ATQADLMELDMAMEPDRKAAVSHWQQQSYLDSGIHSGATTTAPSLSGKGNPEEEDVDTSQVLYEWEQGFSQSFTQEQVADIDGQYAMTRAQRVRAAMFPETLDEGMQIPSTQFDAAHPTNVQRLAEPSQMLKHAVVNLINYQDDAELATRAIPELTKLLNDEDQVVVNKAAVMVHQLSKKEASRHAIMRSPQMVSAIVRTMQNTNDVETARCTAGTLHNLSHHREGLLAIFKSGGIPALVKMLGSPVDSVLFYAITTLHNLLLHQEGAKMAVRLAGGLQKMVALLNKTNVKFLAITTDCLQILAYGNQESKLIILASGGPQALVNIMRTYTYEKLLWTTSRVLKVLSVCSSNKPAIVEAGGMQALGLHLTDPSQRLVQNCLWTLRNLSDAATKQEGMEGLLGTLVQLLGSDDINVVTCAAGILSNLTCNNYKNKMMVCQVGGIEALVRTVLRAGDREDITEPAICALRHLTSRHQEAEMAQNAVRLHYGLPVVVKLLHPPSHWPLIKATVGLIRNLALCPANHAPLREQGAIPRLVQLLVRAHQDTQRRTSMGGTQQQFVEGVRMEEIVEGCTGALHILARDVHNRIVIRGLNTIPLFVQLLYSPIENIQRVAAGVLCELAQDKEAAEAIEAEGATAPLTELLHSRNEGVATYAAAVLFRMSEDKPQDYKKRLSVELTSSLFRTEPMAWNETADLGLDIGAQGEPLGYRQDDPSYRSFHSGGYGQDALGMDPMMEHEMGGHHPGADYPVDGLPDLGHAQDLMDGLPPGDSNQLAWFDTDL
UniProt P12830, residues 155-882: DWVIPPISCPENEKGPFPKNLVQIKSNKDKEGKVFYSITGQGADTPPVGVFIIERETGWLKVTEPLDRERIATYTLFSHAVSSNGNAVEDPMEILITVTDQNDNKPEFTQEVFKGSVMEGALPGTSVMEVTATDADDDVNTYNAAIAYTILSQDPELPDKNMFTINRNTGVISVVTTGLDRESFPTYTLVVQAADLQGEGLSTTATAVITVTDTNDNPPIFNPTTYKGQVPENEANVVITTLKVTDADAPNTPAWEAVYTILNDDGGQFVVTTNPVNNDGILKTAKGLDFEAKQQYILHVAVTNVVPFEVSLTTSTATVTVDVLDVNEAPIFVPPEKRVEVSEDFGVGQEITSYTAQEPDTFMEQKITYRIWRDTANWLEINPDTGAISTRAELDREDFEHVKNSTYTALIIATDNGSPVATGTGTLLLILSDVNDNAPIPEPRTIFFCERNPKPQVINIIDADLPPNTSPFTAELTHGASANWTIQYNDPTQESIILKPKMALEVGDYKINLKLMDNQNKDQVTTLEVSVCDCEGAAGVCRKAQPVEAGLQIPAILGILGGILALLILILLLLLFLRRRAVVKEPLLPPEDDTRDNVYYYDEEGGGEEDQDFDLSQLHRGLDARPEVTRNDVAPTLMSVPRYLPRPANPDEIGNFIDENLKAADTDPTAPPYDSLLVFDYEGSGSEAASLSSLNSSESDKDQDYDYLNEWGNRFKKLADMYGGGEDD

Measured: binding

E-cadherin (from UniProt P12830 155-882)
binds: all assays above

Source: patent US20070248604A1 (Genentech, published 2007)
